Test results published in US10329304B2, “Compounds and methods for inhibition of hedgehog signaling and phosphodiesterase” (Vanderbilt University, priority 2014, dated 2019).

The chains behind the UniProt entries cited, without tags or fusion partners. Residues count along the entry.
UniProt Q08499, 303-809: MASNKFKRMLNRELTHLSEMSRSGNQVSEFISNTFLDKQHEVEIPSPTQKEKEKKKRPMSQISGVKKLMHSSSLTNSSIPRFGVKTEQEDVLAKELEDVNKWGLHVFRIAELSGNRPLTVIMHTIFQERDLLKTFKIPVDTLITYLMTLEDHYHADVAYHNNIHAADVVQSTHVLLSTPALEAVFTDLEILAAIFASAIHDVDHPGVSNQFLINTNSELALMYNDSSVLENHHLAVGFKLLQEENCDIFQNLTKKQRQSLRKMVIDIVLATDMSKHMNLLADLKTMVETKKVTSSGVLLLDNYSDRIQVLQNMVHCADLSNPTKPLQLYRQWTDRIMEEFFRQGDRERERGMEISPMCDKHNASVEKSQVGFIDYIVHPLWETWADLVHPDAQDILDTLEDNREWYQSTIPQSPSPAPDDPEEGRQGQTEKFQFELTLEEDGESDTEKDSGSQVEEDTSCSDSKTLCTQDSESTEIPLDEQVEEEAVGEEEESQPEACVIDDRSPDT
UniProt Q08499, 1-673 isoform 2: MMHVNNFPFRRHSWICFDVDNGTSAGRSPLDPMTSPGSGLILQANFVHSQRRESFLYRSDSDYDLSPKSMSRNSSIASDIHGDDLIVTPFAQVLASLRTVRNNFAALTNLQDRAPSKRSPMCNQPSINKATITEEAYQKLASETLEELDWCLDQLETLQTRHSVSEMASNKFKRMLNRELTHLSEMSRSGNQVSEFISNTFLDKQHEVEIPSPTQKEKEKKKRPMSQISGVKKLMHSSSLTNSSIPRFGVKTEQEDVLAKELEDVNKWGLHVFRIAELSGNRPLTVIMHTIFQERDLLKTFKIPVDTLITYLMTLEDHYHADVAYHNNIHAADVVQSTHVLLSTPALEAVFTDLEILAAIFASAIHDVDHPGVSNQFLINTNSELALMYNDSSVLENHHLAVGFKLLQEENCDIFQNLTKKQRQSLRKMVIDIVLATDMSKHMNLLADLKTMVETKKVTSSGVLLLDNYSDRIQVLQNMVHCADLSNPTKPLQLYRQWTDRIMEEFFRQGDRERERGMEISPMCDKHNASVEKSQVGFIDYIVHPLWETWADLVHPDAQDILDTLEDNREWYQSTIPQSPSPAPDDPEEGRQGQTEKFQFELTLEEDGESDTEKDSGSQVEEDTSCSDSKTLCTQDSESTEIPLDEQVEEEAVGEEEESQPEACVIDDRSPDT

Assays:
PDE4D3 = PDE4D3 (Homo sapiens, UniProt Q08499); experiment: In vitro PDE assay; settings: read-out: PDE4D3 IC50; Table 9A
PDE4D2 = PDE4D2 (Homo sapiens, UniProt Q08499); experiment: In vitro PDE assay; settings: read-out: PDE4D2 IC50; Table 9A
[1] = system: Hedgehog signaling (TM3-Gli-Luc); experiment: TM3-Gli-Luc luciferase reporter assay stimulated with 20 nM SAG; assay type: cell-based
Gli1 mRNA = experiment: Hh % Inh.: SAG-induced Gli1 expression in C3H10T½ cells (qPCR); settings: 10 pM [sic]; SAG-induced (100 nM), 24 hours
DU145 = experiment: Cell viability assay (CellTiter-Blue, 72 hr); settings: read-out: CELL KILLING EC50 (μM) Prostate DU145; human cancer cells
HCT116 = experiment: Cell viability assay (CellTiter-Blue, 72 hr); settings: read-out: CELL KILLING EC50 (μM) Colon HTC116; human cancer cells
RKO = experiment: Cell viability assay (CellTiter-Blue, 72 hr); settings: read-out: CELL KILLING EC50 (μM) Colon RKO; human cancer cells
DaoY = experiment: Cell viability assay (CellTiter-Blue, 72 hr); settings: read-out: CELL KILLING EC50 (μM) Medulloblastoma DaoY; human cancer cells
MDA-MB- 231 = experiment: Cell viability assay (CellTiter-Blue, 72 hr); settings: read-out: CELL KILLING EC50 (μM) Breast MDA-231; human cancer cells
SW480 = experiment: Cell viability assay (CellTiter-Blue, 72 hr); settings: read-out: CELL KILLING EC50 (μM) Colon SW480; human cancer cells
HeLa = experiment: Cell viability assay (CellTiter-Blue, 72 hr); settings: read-out: CELL KILLING EC50 (μM) Cervix HeLa; human cancer cells
B16F11 = experiment: Cell viability assay (CellTiter-Blue, 72 hr); settings: read-out: CELL KILLING EC50 (μM) Melanoma B16F10; Table 10
RWGT2 = experiment: Cell viability assay (CellTiter-Blue, 72 hr); settings: read-out: CELL KILLING EC50 (μM) Lung Squam, NSCLC RWGT2; human cancer cells
MCF7 = experiment: Cell viability assay (CellTiter-Blue, 72 hr); settings: read-out: CELL KILLING EC50 (μM) Breast MCF7; human cancer cells
PC3 = experiment: Cell viability assay (CellTiter-Blue, 72 hr); settings: read-out: CELL KILLING EC50 (μM) Prostate PCx3; human cancer cells
H82 = experiment: Cell killing EC50 in H82 lung cancer cells (Table 10); settings: human cancer cells

IC50 (PDE4D3): 8.3 µM
IC50 (PDE4D2): 5.6 µM
EC50 ([1]; read-out: TM3 G8 Luciferase EC 50, Table 9A): 17.8 µM
SMILES: C=C(C)Cn1c(SCC(=O)N2CCN(C)CC2)nc2sc3c(c2c1=O)CCCC3 [Formula (7)]
TM3 G8 Luciferase % Inh., 2 pM [1]: 33.1%
TM3 G8 Luciferase % Inh., 0.5 pM ([1]; 0.5 pM as printed): 21.5%
C3H10T1/2 qPCR, Gh1 mRNA % Inh., 10 pM (Gli1 mRNA): 36.9%
EC50 (DU145): 40.3 µM
EC50 (HCT116): 66.4 µM
EC50 (RKO): 29.2 µM
EC50 (DaoY): 44.9 µM
EC50 (MDA-MB- 231): 17.3 µM
EC50 (SW480): 4.68 µM
EC50 (HeLa): 78.6 µM
EC50 (B16F11): 25.3 µM
EC50 (RWGT2): 59.5 µM
EC50 (MCF7): 74.6 µM
EC50 (PC3): 105 µM
CELL KILLING EC50 (μM) Lung H82 (H82): UnCh

The match of structure and compound is tentative.
